Results: patent US5773411A (The DuPont Merck Pharmaceutical Company, priority 1994, dated 1998)
HELM strings list residues between dots; [ac] is acetyl, [am] amide, other brackets name non-standard units.

Assay: general procedure: peptide synthesis; Oxime resin (substitution level=0.96 mmol/g); HBTU, TBTU
Conditions: TFA salt; for cyclisation yield: cyclisation step
[1] = late stage modification step, calculated as the acetate salt

Substance | cyclisation yield | step yield (late stage modification step) | other results
6-(BOC-D-Val-NMeArg(Tos)-Gly-Asp(OCHX))Aminomethyl-2-pyridinecarboxylicacid |  |  | step yield (coupling step): 99% yield
Cyclo(6-(D-Val-NMeArg(Tos)-Gly-Asp(OCHX)) Aminomethyl-2-pyridinecarboxylate) | 27% | 96% | 
cyclo-D-Val-MeArg(Tos)-Gly-Asp(Chx)-AMTC | 31% |  | 
4'-Nitrobenzophenimino D-Val-N(Me)Arg(Tos)-Gly-Asp(CHX)-2-amino-4-thiazoleacetate trifluoroacetate salt |  | 94% | 
PEPTIDE1{[dV].[NMeArg].G.D.[AMPic]}$PEPTIDE1,PEPTIDE1,1:R1-5:R2$$$V2.0 |  |  | step yield [1]: 60%
PEPTIDE1{[dV].[NMeArg].G.D.[AMFur]}$PEPTIDE1,PEPTIDE1,1:R1-5:R2$$$V2.0 |  |  | step yield [1]: 91%; step yield (late stage modification step, overall): overall yield 40%; step yield (purification step): 44% recovery
Boc-D-Val-MeArg (Tos)-Gly-Asp (Chx)-AMTC-Ox |  |  | step yield (coupling step): 59%
H2 N-D-Val-MeArg(Tos)-Gly-Asp(Chx)-AMTC-Ox trifluoroacetate salt |  | 68% | 
PEPTIDE1{[dV].[NMeArg].G.D.[AMTC]}$PEPTIDE1,PEPTIDE1,1:R1-5:R2$$$V2.0 |  | 46% | 
cyclo-(D-Val-N(Me)Arg(Tos)-Gly-Asp(CHX)-2-amino-4-thiazoleacetate) | 40% |  | 
